Taken from: PubChem BioAssay AID1224829 (NIAID, 2016)

- Test: 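Follow-up of TLR4-NF-kappaB regulators using six separate siRNAs for each gene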 (follow-up of hits)
- System: mouse RAW264.7 G9 macrophage reporter cells
- Knock-down reagent: single siRNA against mouse genes, 100 nM
- Duration: 2 days of siRNA knock-down, then 40 min of LPS before fixing
- Treatment: LPS (Salmonella minnesota R595) at 10 ng/ml
- Measured: 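High-content images after 40 min LPS exposure; GFP-p65 nucleus to surrounding ring signal ratio, normalised to plate median and non-targeting control wells, expressed as z-score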
- Scale: p65 translocation z-score and gene median z-score, per vendor: higher = more nuclear NF-kappaB p65 after LPS
- Active means: 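Active means the replicate-mean z-score lies beyond plus or minus 2, in either direction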
- Meaning of the calls: active = changed p65 translocation (either direction); inactive = no clear change
The deposit covers about 3,800 reagents; shown is an unselected part. 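Calls cover raised and lowered translocation; gene median uses one vendor's three siRNAs; qiagen siRNAs acted more weakly than ambion siRNAs.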 Reagents against one gene are numbered here. No sequences are given here.

| Target gene | reagent | siRNA vendor or control pool | p65 translocation z-score, replicate mean | p65 translocation z-score, replicate 1 | p65 translocation z-score, replicate 2 | gene median z-score, per vendor | Outcome |
| --- | --- | --- | --- | --- | --- | --- | --- |
| Fbh1 (F-box DNA helicase 1) | 1 | ambion single siRNA | -3.31 | -6.66 | 0.0314 | -1.24 | active |
| Fbh1 (F-box DNA helicase 1) | 2 | ambion single siRNA | 0.914 | 2.49 | -0.657 | -1.24 | inactive |
| Fbh1 (F-box DNA helicase 1) | 3 | ambion single siRNA | -2.46 | -3.1 | -1.82 | -1.24 | active |
| Fbh1 (F-box DNA helicase 1) | 4 | qiagen single siRNA | 1.32 | 1.23 | 1.41 | -0.685 | inactive |
| Fbh1 (F-box DNA helicase 1) | 5 | qiagen single siRNA | -1.07 | -1.46 | -0.685 | -0.685 | inactive |
| Fbh1 (F-box DNA helicase 1) | 6 | qiagen single siRNA | -3.1 | -3.1 | – | -0.685 | active |
| Cubn (cubilin) | 1 | qiagen single siRNA | -1 | -2.26 | 0.258 | -1.17 | inactive |
| Cubn (cubilin) | 2 | qiagen single siRNA | -0.53 | -1.17 | 0.105 | -1.17 | inactive |
| Cubn (cubilin) | 3 | qiagen single siRNA | -2.71 | -2.71 | – | -1.17 | active |
| Gstm3 (glutathione S-transferase, mu 3) | 1 | ambion single siRNA | 0.468 | -0.107 | 1.04 | -0.241 | inactive |
| Gstm3 (glutathione S-transferase, mu 3) | 2 | ambion single siRNA | -0.0266 | 1.22 | -1.28 | -0.241 | inactive |
| Gstm3 (glutathione S-transferase, mu 3) | 3 | ambion single siRNA | -0.425 | -0.474 | -0.375 | -0.241 | inactive |
| Gstm3 (glutathione S-transferase, mu 3) | 4 | qiagen single siRNA | 1.83 | 0.64 | 3.01 | 0.554 | inactive |
| Gstm3 (glutathione S-transferase, mu 3) | 5 | qiagen single siRNA | 1.43 | 0.469 | 2.4 | 0.554 | inactive |
| Gstm3 (glutathione S-transferase, mu 3) | 6 | qiagen single siRNA | -3.18 | -3.29 | -3.08 | 0.554 | active |
| Galnt6 (polypeptide N-acetylgalactosaminyltransferase 6) | 1 | ambion single siRNA | -4.58 | -5.85 | -3.32 | -2.43 | active |
| Galnt6 (polypeptide N-acetylgalactosaminyltransferase 6) | 2 | ambion single siRNA | -2.52 | -1.54 | -3.49 | -2.43 | active |
| Galnt6 (polypeptide N-acetylgalactosaminyltransferase 6) | 3 | ambion single siRNA | -0.638 | 0.228 | -1.51 | -2.43 | inactive |
| Galnt6 (polypeptide N-acetylgalactosaminyltransferase 6) | 4 | qiagen single siRNA | 2.23 | 1.26 | 3.21 | 1.26 | active |
| Galnt6 (polypeptide N-acetylgalactosaminyltransferase 6) | 5 | qiagen single siRNA | 1.03 | 1.28 | 0.774 | 1.26 | inactive |
| Galnt6 (polypeptide N-acetylgalactosaminyltransferase 6) | 6 | qiagen single siRNA | -2.75 | -2.75 | – | 1.26 | active |
| Hfe (homeostatic iron regulator) | 1 | ambion single siRNA | -0.693 | -0.747 | -0.64 | -0.879 | inactive |
| Hfe (homeostatic iron regulator) | 2 | ambion single siRNA | -0.455 | 0.102 | -1.01 | -0.879 | inactive |
| Hfe (homeostatic iron regulator) | 3 | ambion single siRNA | -4.39 | -4.1 | -4.67 | -0.879 | active |
| Hfe (homeostatic iron regulator) | 4 | qiagen single siRNA | 1.17 | 1.25 | 1.09 | 0.948 | inactive |
| Hfe (homeostatic iron regulator) | 5 | qiagen single siRNA | -0.892 | 0.0199 | -1.8 | 0.948 | inactive |
| Hfe (homeostatic iron regulator) | 6 | qiagen single siRNA | 2.16 | 0.802 | 3.51 | 0.948 | active |
| Fga (fibrinogen alpha chain) | 1 | ambion single siRNA | 2.26 | 2.37 | 2.14 | 2.25 | active |
| Fga (fibrinogen alpha chain) | 2 | ambion single siRNA | -4.33 | -4.06 | -4.59 | 2.25 | active |
| Fga (fibrinogen alpha chain) | 3 | ambion single siRNA | 2.68 | 2.98 | 2.37 | 2.25 | active |
| Fga (fibrinogen alpha chain) | 4 | qiagen single siRNA | 2.43 | 0.222 | 4.65 | 0.824 | active |
| Fga (fibrinogen alpha chain) | 5 | qiagen single siRNA | -1.64 | -2 | -1.28 | 0.824 | inactive |
| Fga (fibrinogen alpha chain) | 6 | qiagen single siRNA | 2.1 | 1.43 | 2.78 | 0.824 | active |

An excerpt of the results above:
| Target gene | reagent | siRNA vendor or control pool | p65 translocation z-score, replicate mean | p65 translocation z-score, replicate 1 | p65 translocation z-score, replicate 2 | gene median z-score, per vendor | Outcome |
| --- | --- | --- | --- | --- | --- | --- | --- |
| Cubn (cubilin) | 1 | qiagen single siRNA | -1 | -2.26 | 0.258 | -1.17 | inactive |
| Cubn (cubilin) | 2 | qiagen single siRNA | -0.53 | -1.17 | 0.105 | -1.17 | inactive |
| Cubn (cubilin) | 3 | qiagen single siRNA | -2.71 | -2.71 | – | -1.17 | active |
| Gstm3 (glutathione S-transferase, mu 3) | 1 | ambion single siRNA | 0.468 | -0.107 | 1.04 | -0.241 | inactive |
| Gstm3 (glutathione S-transferase, mu 3) | 2 | ambion single siRNA | -0.0266 | 1.22 | -1.28 | -0.241 | inactive |
| Gstm3 (glutathione S-transferase, mu 3) | 3 | ambion single siRNA | -0.425 | -0.474 | -0.375 | -0.241 | inactive |
| Gstm3 (glutathione S-transferase, mu 3) | 4 | qiagen single siRNA | 1.83 | 0.64 | 3.01 | 0.554 | inactive |

The list goes on.
| Target gene | reagent | siRNA vendor or control pool | p65 translocation z-score, replicate mean | p65 translocation z-score, replicate 1 | p65 translocation z-score, replicate 2 | gene median z-score, per vendor | Outcome |
| --- | --- | --- | --- | --- | --- | --- | --- |
| Gata3 (GATA binding protein 3) | 1 | ambion single siRNA | – | – | – | -1.91 | inactive |
| Gata3 (GATA binding protein 3) | 2 | ambion single siRNA | -3.48 | -2.39 | -4.57 | -1.91 | active |
| Gata3 (GATA binding protein 3) | 3 | ambion single siRNA | -1.01 | -0.594 | -1.42 | -1.91 | inactive |
| Gata3 (GATA binding protein 3) | 4 | qiagen single siRNA | 0.624 | -0.22 | 1.47 | -1.51 | inactive |
| Gata3 (GATA binding protein 3) | 5 | qiagen single siRNA | -1.51 | -1.51 | – | -1.51 | inactive |
| Gata3 (GATA binding protein 3) | 6 | qiagen single siRNA | -2.79 | -2.98 | -2.6 | -1.51 | active |
| Arhgef1 (Rho guanine nucleotide exchange factor 1) | 1 | ambion single siRNA | -0.153 | -0.0256 | -0.28 | -0.766 | inactive |
| Arhgef1 (Rho guanine nucleotide exchange factor 1) | 2 | ambion single siRNA | -1.35 | -0.766 | -1.94 | -0.766 | inactive |
| Arhgef1 (Rho guanine nucleotide exchange factor 1) | 3 | ambion single siRNA | -2.87 | -2.87 | – | -0.766 | active |
| Arhgef1 (Rho guanine nucleotide exchange factor 1) | 4 | qiagen single siRNA | 1.1 | 0.586 | 1.61 | -0.158 | inactive |
| Arhgef1 (Rho guanine nucleotide exchange factor 1) | 5 | qiagen single siRNA | -0.389 | -0.337 | -0.441 | -0.158 | inactive |
| Arhgef1 (Rho guanine nucleotide exchange factor 1) | 6 | qiagen single siRNA | -1.23 | 0.0208 | -2.48 | -0.158 | inactive |
| Brd4 (bromodomain containing 4) | 1 | ambion single siRNA | -1.83 | -1.72 | -1.95 | -1.95 | inactive |
| Brd4 (bromodomain containing 4) | 2 | ambion single siRNA | -1.55 | -2.8 | -0.306 | -1.95 | inactive |
| Brd4 (bromodomain containing 4) | 3 | ambion single siRNA | -4.57 | -4.57 | – | -1.95 | active |
| Brd4 (bromodomain containing 4) | 4 | qiagen single siRNA | -4.58 | -3.69 | -5.46 | -4.88 | active |
| Brd4 (bromodomain containing 4) | 5 | qiagen single siRNA | -4.38 | -3.02 | -5.75 | -4.88 | active |
| Brd4 (bromodomain containing 4) | 6 | qiagen single siRNA | -5.48 | -4.3 | -6.65 | -4.88 | active |
